“And” between values parts separate entries of the source, which are not always exact repeats. Equal entries are not always repeated. Where two headings read alike, the source gives them in different places. At least one peptide structure holds a part that was inferred or is arguable (an end, a ring closure or a residue). No end group written: not given here.
Legend:
lambda DNA = test: Single-molecule DNA sliding assay on flow-stretched DNA (TIRF microscopy); set-up: species or system bacteriophage lambda
Text: To determine whether AVP-pVIc complexes slide on DNA, Applicants used single-molecule fluorescence microscopy (FIG. 10C) with flow-stretched DNA, (FIG. 10D,E) (Kabata, H. et al. Visualization of single molecules of RNA polymerase sliding along DNA. Science 262, 1561-3 (1993); Harada, Y. et al. Single-molecule imaging of RNA polymerase-DNA interactions in real time. Biophys. J. 76, 709-715 (1999) and Blainey, P. C., van Oijen, A. M., Banerjee, A., Verdine, G. L. & Xie, X. S. A base-excision DNA-repair protein finds intrahelical lesion bases by fast sliding in contact with DNA. Proc Natl Acad Sci USA 103, 5752-7 (2006)). […] Biochemistry 40, 13237-13245 (2001)), and furthermore to diffuse rapidly over tens of thousands of base pairs before dissociating from the DNA. For example, the molecule whose motion is shown in the raw image data in FIG. 12A traveled more than 20,000 base pairs during a 0.9 sec binding event. Despite the optical resolution limit imposed by diffraction, the centroid position of each signal in each frame was determined with 11 nm spatial precision at 3.5 ms time resolution (Gelles, J., Schnapp, B. J. & Sheetz, M. P. Tracking kinesin-driven movements with nanometer-scale precision. Nature 331, 450-3 (1988) and Thompson, R. E., Larson, D. R. & Webb, W. W. Precise nanometer localization analysis for individual fluorescent probes. Biophys J 82, 2775-83 (2002)), FIG. 12B.
Flow cells containing bacteriophage lambda DNA immobilized at one end were constructed as described previously (Blainey, P. C., van Oijen, A. M., Banerjee, A., Verdine, G. L. & Xie, X. S. A base-excision DNA-repair protein finds intrahelical lesion bases by fast sliding in contact with DNA. Proc Natl Acad Sci USA 103, 5752-7 (2006)). Labeled samples of AVP-pVIc complexes were infused at concentrations of 1-2 nM at rates of 20-50 mL/hour. […]
Due to the speed and duration of sliding by AVP-pVIc complexes, these events were readily identifiable manually. […] Molecular trajectories were analyzed in Matlab by methods similar to those previously published (Blainey, P. C., van Oijen, A. M., Banerjee, A., Verdine, G. L. & Xie, X. S. A base-excision DNA-repair protein finds intrahelical lesion bases by fast sliding in contact with DNA. Proc Natl Acad Sci USA 103, 5752-7 (2006)).
A question is does pVIc by itself slide on DNA. […] The sliding assay, based upon total internal reflection fluorescence microscopy, used phage λ DNA molecules (48,502 base pairs) attached at one end to a glass cover slip surface by a biotin-streptavidin linkage. […]

dsDNA [1] = assay type: binding; conditions: pH 7; read-out: Kd(app.)
adenovirus = conditions: pVIc added to cells along with adenovirus; Baniecki et al. 2001; cited from earlier work
dsDNA [2] = conditions: 12-mer dsDNA, pH 8; McGrath et al. 2001; read-out: Kd(app.); cited from earlier work

Sequence: GVQSLKRRRCF [pVIc]
- one-dimensional diffusion constant (mean) (lambda DNA; flow-stretched lambda DNA, low salt): 26×10^6 (bp)^2/s and 26±1.8×10^6 (bp)^2/s
- Mean D1 ± SEM (lambda DNA; lambda DNA, high salt 20-25 mM NaCl): 17.9 ± 3.5 (bp)^2/s × 10^−6
- One-Dimensional Diffusion Constant (mean D1 ± SEM) (lambda DNA; lambda DNA, low salt 2-6 mM NaCl): 26.0 ± 1.8 (bp)^2/s × 10^−6 and 26.1 ± 1.8 (bp)^2/s × 10^−6
- binding lifetime on DNA (lambda DNA; single-molecule experiments): approximately 1 s
- Kd (dsDNA [1]): 264 ± 25 nM
- decrease of yield of infectious virus (adenovirus): more than 99%
- Kd (dsDNA [2]): 693 ± 84 nM
